Experimental data: patent US20210155689A1 (SHANGHAI PHARMAEXPLORER, published 2021)
No constants are given. Whether binding was seen depends on the method and setting. Some entries that bind do so weakly or less than the wild type. Where a sequence is shown, tags or fusion partners need not be part of it.

Molecular target: T1, human LAG-3 protein with hFc tag (hLAG-3-hFc protein) (human) (UniProt P18627)
T1 sequence: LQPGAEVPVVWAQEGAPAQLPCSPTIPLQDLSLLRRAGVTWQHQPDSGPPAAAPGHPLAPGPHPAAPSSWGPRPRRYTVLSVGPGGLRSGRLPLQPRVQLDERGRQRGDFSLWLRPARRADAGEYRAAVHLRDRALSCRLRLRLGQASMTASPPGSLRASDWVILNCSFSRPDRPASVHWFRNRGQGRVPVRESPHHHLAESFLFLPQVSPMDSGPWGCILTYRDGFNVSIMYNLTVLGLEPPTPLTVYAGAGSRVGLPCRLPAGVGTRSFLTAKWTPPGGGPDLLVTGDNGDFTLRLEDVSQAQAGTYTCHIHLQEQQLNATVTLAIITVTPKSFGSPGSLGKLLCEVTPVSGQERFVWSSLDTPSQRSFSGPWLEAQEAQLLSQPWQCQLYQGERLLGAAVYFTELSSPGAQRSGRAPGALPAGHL
Assay: ELISA, hLAG-3-hFc coated

B1: LSECtin-His (ligand, UniProt Q6UXB4 54-293, looked up, not shown: small tags and cut ends)
chain: SKASTERAALLDGHDLLRTNASKQTAALGALKEEVGDCHSCCSGTQAQLQTTRAELGEAQAKLMEQESALRELRERVTQGLAEAGRGREDVRTELFRALEAVRLQNNSCEPCPTSWLSFEGSCYFFSVPKTTWAAAQDHCADASAHLVIVGGLDEQGFLTRNTRGRGYWLGLRAVRHLGKVQGYQWVDGVSLSFSHWNQGEPNDAWGRENCVMMLHTGLWNDAPCDSEKDGWICEKRHNC
binding: binds
